# Counter-ions that a name gives are not always drawn. This is one part of the list. Hit calls seldom repeat between salt and free forms of one compound.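 In K562 cells expressing nanoluciferase-fused kinases, luminescence was recorded at 4 h intervals between 2 and 18 h, normalized as percent of control with DMSO at 100% and a positive control at 0%. A significant (2 sigma) signal drop marks a time point as decreased. The authors' rule for a hit is not shown and takes in more than the number of time points.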
# Amino acid sequences for entries named in this document (tags omitted). A change or cut given only in a name is not applied to a line headed by its entry.
# UniProt P00519, whole entry: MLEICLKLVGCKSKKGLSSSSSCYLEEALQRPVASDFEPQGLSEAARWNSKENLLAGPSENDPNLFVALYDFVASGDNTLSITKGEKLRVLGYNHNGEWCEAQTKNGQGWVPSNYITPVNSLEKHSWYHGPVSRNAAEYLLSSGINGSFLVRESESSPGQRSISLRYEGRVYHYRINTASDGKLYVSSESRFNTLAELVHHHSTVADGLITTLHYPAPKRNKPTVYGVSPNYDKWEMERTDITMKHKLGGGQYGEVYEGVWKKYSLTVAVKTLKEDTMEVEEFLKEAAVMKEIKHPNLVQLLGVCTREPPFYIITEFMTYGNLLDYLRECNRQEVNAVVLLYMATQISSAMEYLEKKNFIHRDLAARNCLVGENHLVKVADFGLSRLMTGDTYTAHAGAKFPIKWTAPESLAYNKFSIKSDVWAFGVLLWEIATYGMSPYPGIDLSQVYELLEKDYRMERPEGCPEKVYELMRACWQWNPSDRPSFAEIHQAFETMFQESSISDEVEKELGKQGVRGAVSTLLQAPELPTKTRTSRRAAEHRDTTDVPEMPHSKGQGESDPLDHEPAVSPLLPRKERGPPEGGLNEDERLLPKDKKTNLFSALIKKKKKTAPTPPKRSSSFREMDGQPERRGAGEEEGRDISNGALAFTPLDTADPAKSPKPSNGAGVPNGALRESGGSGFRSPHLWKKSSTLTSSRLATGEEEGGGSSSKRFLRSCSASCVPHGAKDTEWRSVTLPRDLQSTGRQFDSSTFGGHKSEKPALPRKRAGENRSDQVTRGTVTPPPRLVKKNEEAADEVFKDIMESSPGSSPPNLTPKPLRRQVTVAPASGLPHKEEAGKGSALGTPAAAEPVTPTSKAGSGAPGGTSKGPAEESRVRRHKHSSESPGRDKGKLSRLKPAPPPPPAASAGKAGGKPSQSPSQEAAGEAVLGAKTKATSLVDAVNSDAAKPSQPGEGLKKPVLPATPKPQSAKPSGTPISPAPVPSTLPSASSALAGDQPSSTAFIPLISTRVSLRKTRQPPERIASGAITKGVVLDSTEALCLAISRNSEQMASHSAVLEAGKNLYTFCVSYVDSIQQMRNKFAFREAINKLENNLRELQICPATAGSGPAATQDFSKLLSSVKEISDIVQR
# UniProt P10398: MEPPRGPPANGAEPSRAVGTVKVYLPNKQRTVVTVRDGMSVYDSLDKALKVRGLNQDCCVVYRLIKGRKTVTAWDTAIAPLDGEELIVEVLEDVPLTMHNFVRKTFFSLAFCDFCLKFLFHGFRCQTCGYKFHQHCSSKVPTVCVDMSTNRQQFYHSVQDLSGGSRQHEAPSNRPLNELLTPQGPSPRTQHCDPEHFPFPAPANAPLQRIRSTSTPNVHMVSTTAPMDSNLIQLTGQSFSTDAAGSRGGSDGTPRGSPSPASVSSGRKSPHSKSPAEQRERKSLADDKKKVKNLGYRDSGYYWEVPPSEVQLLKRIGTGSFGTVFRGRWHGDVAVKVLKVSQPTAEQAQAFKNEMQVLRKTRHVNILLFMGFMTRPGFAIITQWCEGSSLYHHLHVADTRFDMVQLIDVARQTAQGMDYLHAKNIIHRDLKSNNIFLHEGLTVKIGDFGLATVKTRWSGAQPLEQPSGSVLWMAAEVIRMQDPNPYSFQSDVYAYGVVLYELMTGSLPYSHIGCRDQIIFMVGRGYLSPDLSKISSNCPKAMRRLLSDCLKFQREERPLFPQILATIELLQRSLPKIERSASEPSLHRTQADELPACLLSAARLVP
# UniProt O14965: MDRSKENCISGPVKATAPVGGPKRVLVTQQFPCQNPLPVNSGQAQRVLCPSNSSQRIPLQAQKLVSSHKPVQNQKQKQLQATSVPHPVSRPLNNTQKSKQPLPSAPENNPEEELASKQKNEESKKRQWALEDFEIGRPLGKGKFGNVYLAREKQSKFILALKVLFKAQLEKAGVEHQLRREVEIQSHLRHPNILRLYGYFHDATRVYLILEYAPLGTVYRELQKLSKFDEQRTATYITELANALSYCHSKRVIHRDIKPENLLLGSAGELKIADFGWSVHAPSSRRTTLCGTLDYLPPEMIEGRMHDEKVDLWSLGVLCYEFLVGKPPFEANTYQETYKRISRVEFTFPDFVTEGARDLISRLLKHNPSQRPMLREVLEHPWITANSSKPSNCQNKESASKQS
# UniProt Q96GD4, whole entry: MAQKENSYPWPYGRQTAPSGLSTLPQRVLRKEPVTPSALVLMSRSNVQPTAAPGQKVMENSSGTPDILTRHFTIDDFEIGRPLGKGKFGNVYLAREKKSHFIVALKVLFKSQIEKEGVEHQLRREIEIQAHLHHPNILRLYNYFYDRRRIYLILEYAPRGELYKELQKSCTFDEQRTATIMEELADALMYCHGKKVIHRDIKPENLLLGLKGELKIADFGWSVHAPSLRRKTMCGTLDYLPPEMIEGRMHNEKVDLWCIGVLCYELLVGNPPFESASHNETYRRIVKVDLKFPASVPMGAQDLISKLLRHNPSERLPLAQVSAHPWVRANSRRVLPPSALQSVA
# UniProt Q9UQB9: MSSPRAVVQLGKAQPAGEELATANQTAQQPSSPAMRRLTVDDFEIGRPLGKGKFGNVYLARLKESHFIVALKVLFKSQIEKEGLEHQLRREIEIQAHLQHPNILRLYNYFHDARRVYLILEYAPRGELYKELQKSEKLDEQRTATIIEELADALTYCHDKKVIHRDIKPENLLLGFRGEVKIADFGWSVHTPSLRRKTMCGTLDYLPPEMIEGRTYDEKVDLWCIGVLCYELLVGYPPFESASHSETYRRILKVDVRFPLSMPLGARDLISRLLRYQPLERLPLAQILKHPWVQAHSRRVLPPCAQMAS
# UniProt P51451: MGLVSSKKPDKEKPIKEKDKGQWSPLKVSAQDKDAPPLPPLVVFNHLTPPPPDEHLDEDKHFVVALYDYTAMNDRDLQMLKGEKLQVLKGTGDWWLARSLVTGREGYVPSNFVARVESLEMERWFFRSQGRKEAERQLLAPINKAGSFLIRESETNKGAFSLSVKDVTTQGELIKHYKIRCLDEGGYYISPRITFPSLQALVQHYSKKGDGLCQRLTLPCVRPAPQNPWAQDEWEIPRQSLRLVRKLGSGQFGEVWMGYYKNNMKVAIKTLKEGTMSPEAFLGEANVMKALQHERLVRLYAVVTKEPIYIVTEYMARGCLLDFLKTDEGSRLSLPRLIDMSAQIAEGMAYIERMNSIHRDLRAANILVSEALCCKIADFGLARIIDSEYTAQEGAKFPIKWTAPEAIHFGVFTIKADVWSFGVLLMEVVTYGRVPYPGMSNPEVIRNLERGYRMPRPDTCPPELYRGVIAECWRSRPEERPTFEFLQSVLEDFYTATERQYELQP
# UniProt P51813: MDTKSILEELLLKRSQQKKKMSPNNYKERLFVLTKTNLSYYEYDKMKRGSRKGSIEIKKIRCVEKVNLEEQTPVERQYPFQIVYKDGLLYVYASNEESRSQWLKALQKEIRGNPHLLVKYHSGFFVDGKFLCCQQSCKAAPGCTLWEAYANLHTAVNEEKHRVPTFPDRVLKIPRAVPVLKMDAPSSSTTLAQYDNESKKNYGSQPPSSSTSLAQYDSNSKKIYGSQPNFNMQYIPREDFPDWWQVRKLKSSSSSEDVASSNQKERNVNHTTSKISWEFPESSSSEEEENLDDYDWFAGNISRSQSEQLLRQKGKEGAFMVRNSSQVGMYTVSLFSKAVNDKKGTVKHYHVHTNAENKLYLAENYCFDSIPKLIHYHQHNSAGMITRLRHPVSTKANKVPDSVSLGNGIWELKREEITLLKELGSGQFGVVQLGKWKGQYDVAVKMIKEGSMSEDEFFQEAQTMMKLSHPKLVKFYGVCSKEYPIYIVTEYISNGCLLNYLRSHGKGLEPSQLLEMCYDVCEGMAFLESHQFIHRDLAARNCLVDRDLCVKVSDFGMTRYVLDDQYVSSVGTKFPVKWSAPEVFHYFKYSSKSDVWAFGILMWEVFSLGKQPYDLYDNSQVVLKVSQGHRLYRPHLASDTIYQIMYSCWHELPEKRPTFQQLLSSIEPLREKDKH
# UniProt P15056, whole entry, looked up: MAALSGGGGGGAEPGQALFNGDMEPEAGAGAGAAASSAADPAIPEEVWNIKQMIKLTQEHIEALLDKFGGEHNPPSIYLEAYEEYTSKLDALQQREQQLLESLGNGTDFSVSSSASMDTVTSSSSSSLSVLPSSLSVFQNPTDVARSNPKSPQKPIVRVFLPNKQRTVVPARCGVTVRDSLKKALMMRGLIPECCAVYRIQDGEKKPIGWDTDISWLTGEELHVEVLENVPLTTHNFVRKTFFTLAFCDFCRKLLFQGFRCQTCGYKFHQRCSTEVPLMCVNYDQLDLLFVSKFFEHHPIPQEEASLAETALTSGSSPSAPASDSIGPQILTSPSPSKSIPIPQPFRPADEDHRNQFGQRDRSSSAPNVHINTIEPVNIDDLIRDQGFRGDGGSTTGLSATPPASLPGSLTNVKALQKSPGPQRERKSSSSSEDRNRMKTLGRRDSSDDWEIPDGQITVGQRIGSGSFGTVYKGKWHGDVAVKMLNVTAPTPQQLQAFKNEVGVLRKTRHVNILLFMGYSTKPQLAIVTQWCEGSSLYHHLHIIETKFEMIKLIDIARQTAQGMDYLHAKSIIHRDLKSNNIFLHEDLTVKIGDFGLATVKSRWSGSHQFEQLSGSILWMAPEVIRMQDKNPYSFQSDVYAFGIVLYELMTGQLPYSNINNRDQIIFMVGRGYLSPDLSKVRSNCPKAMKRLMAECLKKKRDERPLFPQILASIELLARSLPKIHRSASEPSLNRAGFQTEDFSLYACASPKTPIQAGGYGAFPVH
# UniProt Q13555: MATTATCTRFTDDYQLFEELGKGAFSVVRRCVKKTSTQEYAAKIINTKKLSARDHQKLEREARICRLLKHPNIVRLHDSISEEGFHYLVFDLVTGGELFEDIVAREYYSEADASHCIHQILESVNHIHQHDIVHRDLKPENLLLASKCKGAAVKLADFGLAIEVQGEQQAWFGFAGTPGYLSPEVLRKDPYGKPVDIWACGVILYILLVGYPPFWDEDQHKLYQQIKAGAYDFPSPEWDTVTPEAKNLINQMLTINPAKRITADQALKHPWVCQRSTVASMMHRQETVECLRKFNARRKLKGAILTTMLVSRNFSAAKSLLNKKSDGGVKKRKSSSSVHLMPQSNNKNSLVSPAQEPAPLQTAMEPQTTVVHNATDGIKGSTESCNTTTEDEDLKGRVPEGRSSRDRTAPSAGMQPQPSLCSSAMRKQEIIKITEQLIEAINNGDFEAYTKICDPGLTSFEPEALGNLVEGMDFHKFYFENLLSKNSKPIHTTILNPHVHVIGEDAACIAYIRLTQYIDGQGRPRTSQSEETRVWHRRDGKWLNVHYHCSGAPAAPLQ
# UniProt Q15131: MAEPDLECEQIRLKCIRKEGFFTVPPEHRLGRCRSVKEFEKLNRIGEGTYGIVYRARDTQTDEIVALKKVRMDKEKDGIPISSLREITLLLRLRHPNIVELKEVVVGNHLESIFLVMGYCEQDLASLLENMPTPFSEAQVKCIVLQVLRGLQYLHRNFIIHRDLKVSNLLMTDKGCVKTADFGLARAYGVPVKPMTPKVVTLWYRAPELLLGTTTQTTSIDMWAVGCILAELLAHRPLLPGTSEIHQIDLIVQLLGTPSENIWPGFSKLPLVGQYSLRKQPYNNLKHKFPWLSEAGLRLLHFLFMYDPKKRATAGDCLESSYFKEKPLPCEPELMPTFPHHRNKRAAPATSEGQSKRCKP
# UniProt Q00526: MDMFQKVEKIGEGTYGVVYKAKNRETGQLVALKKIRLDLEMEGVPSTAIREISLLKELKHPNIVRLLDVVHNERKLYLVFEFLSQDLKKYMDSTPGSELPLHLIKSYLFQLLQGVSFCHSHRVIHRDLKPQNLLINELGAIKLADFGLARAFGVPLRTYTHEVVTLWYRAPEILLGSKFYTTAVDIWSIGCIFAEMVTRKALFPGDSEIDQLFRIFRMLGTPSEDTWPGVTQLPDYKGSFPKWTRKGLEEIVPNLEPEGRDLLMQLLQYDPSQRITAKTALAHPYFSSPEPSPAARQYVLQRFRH
# UniProt P11802: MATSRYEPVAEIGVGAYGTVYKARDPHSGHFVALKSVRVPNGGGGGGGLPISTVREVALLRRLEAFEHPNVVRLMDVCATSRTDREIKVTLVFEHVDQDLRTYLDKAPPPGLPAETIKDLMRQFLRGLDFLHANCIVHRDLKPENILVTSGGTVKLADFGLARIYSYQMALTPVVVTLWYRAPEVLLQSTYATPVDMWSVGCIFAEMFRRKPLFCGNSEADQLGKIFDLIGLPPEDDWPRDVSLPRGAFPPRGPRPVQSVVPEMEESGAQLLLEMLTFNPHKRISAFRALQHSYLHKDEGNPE
# UniProt Q00534, whole entry: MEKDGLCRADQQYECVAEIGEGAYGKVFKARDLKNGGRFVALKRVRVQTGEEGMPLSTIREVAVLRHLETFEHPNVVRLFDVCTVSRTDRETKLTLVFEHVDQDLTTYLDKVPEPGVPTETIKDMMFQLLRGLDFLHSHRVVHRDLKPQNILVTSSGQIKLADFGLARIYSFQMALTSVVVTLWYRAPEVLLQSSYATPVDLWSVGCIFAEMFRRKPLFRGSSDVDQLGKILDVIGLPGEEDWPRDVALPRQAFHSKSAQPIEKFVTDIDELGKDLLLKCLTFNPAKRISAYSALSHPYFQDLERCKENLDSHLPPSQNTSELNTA
# Assays:
# Experiment in all cases: kinase-Nluc reporter destabilization hit call (1 = scored as downregulated) (binary); higher = compound decreases kinase abundance
# Conditions in all cases: K562; 2-18 h
# [1] = target: ABL1 (UniProt P00519)
# [2] = target: AKT1 (UniProt P31749)
# [3] = target: ALK (UniProt Q9UM73)
# [4] = target: ARAF (UniProt P10398)
# [5] = target: AURKA (UniProt O14965)
# [6] = target: AURKB (UniProt Q96GD4)
# [7] = target: AURKC (UniProt Q9UQB9)
# [8] = target: BLK (UniProt P51451)
# [9] = target: BMX (UniProt P51813)
# [10] = target: BRAF (UniProt P15056)
# [11] = system: BRAF_V600E
# [12] = target: BTK (UniProt Q06187)
# [13] = target: CAMK2A (UniProt Q9UQM7)
# [14] = target: CAMK2G (UniProt Q13555)
# [15] = target: CDK10 (UniProt Q15131)
# [16] = target: CDK2 (UniProt P24941)
# [17] = target: CDK3 (UniProt Q00526)
# [18] = target: CDK4 (UniProt P11802)
# [19] = target: CDK5 (UniProt Q00535)
# [20] = target: CDK6 (UniProt Q00534)
Structure (SMILES),kinase-Nluc reporter destabilization hit call [1],kinase-Nluc reporter destabilization hit call [2],kinase-Nluc reporter destabilization hit call [3],kinase-Nluc reporter destabilization hit call [4],kinase-Nluc reporter destabilization hit call [5],kinase-Nluc reporter destabilization hit call [6],kinase-Nluc reporter destabilization hit call [7],kinase-Nluc reporter destabilization hit call [8],kinase-Nluc reporter destabilization hit call [9],kinase-Nluc reporter destabilization hit call [10],kinase-Nluc reporter destabilization hit call [11],kinase-Nluc reporter destabilization hit call [12],kinase-Nluc reporter destabilization hit call [13],kinase-Nluc reporter destabilization hit call [14],kinase-Nluc reporter destabilization hit call [15],kinase-Nluc reporter destabilization hit call [16],kinase-Nluc reporter destabilization hit call [17],kinase-Nluc reporter destabilization hit call [18],kinase-Nluc reporter destabilization hit call [19],kinase-Nluc reporter destabilization hit call [20]
C=CC(=O)N1CCN(CCCn2c(=O)c(-c3c(Cl)c(OC)cc(OC)c3Cl)cc3cnc(NC)nc32)CC1 (10 µM),inactive: 0,inactive: 0,inactive: 0,inactive: 0,inactive: 0,inactive: 0,inactive: 0,inactive: 0,inactive: 0,inactive: 0,inactive: 0,inactive: 0,inactive: 0,inactive: 0,inactive: 0,inactive: 0,inactive: 0,inactive: 0,inactive: 0,inactive: 0
COc1cc(OC)c(F)c(COc2cnc(Nc3cnn(CCO)c3)nc2)c1F (2.5 µM),inactive: 0,inactive: 0,inactive: 0,inactive: 0,inactive: 0,inactive: 0,inactive: 0,inactive: 0,inactive: 0,inactive: 0,inactive: 0,inactive: 0,inactive: 0,inactive: 0,inactive: 0,inactive: 0,inactive: 0,inactive: 0,inactive: 0,inactive: 0
Cc1c[nH]c2ccccc12 [Skatole] (10 µM),inactive: 0,inactive: 0,inactive: 0,inactive: 0,inactive: 0,inactive: 0,inactive: 0,inactive: 0,inactive: 0,inactive: 0,inactive: 0,inactive: 0,inactive: 0,inactive: 0,inactive: 0,inactive: 0,inactive: 0,inactive: 0,inactive: 0,inactive: 0
CCOc1cc2ncc(C#N)c(Nc3ccc(OCc4ccccn4)c(Cl)c3)c2cc1NC(=O)/C=C/CN(C)C [Neratinib] (10 µM),inactive: 0,inactive: 0,inactive: 0,inactive: 0,inactive: 0,inactive: 0,inactive: 0,inactive: 0,inactive: 0,inactive: 0,inactive: 0,inactive: 0,inactive: 0,inactive: 0,inactive: 0,inactive: 0,inactive: 0,inactive: 0,inactive: 0,inactive: 0
C[C@H](NC(=O)/C(C#N)=C/c1cccc(Br)n1)c1ccccc1 (2.5 µM),inactive: 0,inactive: 0,inactive: 0,inactive: 0,inactive: 0,inactive: 0,inactive: 0,inactive: 0,inactive: 0,inactive: 0,inactive: 0,inactive: 0,inactive: 0,inactive: 0,inactive: 0,inactive: 0,inactive: 0,inactive: 0,inactive: 0,inactive: 0
N#CC(=Cc1ccc(O)c(O)c1)C(=O)NCc1ccccc1 (mixture of isomers) (10 µM),inactive: 0,inactive: 0,inactive: 0,inactive: 0,inactive: 0,inactive: 0,inactive: 0,inactive: 0,inactive: 0,inactive: 0,inactive: 0,inactive: 0,inactive: 0,inactive: 0,inactive: 0,inactive: 0,inactive: 0,inactive: 0,inactive: 0,inactive: 0
O=c1c(-c2ccc(O)cc2)coc2cc(O)cc(O)c12 [Genistein] (10 µM),inactive: 0,inactive: 0,inactive: 0,inactive: 0,inactive: 0,inactive: 0,inactive: 0,inactive: 0,inactive: 0,inactive: 0,inactive: 0,inactive: 0,inactive: 0,inactive: 0,inactive: 0,inactive: 0,inactive: 0,inactive: 0,inactive: 0,inactive: 0
COc1ccc2c(NC(=O)Nc3cccc(C(F)(F)F)n3)ccnc2c1 (10 µM),inactive: 0,inactive: 0,inactive: 0,inactive: 0,inactive: 0,inactive: 0,inactive: 0,inactive: 0,inactive: 0,inactive: 0,inactive: 0,inactive: 0,inactive: 0,inactive: 0,inactive: 0,inactive: 0,inactive: 0,inactive: 0,inactive: 0,inactive: 0
Cc1c(C(=O)N2CCOc3ccc(-c4ccc(N)nc4)cc3C2)ccc(S(C)(=O)=O)c1F (10 µM),active: 1,inactive: 0,inactive: 0,inactive: 0,inactive: 0,inactive: 0,inactive: 0,inactive: 0,inactive: 0,inactive: 0,inactive: 0,inactive: 0,inactive: 0,inactive: 0,inactive: 0,inactive: 0,inactive: 0,inactive: 0,inactive: 0,inactive: 0
COc1cc2c(Nc3ccc(Br)cc3F)ncnc2cc1OCCn1ccnn1 (10 µM),inactive: 0,inactive: 0,inactive: 0,inactive: 0,inactive: 0,inactive: 0,inactive: 0,inactive: 0,inactive: 0,inactive: 0,inactive: 0,inactive: 0,inactive: 0,inactive: 0,inactive: 0,inactive: 0,inactive: 0,inactive: 0,inactive: 0,inactive: 0
C=CC(=O)N[C@H]1COC[C@H]1Nc1ncc2cc(-c3c(Cl)c(OC)cc(OC)c3Cl)c(=O)n(C)c2n1 (10 µM),inactive: 0,inactive: 0,inactive: 0,inactive: 0,inactive: 0,inactive: 0,inactive: 0,inactive: 0,inactive: 0,inactive: 0,inactive: 0,inactive: 0,inactive: 0,inactive: 0,inactive: 0,inactive: 0,inactive: 0,inactive: 0,inactive: 0,inactive: 0
Cc1nc(N)sc1-c1ccnc(Nc2ccc(N3CCOCC3)cc2)n1 (10 µM),inactive: 0,inactive: 0,inactive: 0,inactive: 0,inactive: 0,inactive: 0,inactive: 0,inactive: 0,inactive: 0,inactive: 0,inactive: 0,inactive: 0,inactive: 0,inactive: 0,inactive: 0,inactive: 0,inactive: 0,inactive: 0,inactive: 0,inactive: 0
CC(C)(C)n1nc(Cc2cccc3ccccc23)c2c(N)ncnc21 (10 µM),inactive: 0,inactive: 0,inactive: 0,inactive: 0,inactive: 0,inactive: 0,inactive: 0,inactive: 0,inactive: 0,inactive: 0,inactive: 0,inactive: 0,inactive: 0,inactive: 0,inactive: 0,inactive: 0,inactive: 0,inactive: 0,inactive: 0,inactive: 0
O=C(c1ccc(-c2ccc(Cl)cc2)o1)N(Cc1ccccn1)c1ccc(N2CCNCC2)cc1 [MK2-IN-1 (hydrochloride)] (10 µM),inactive: 0,inactive: 0,inactive: 0,inactive: 0,inactive: 0,inactive: 0,inactive: 0,inactive: 0,inactive: 0,inactive: 0,inactive: 0,inactive: 0,inactive: 0,inactive: 0,active: 1,inactive: 0,inactive: 0,inactive: 0,inactive: 0,inactive: 0
C[C@]1(O)C[C@@H](c2nc(-c3ccc4ccc(-c5ccccc5)nc4c3)c3c(N)nccn32)C1 [Linsitinib] (2.5 µM),inactive: 0,inactive: 0,inactive: 0,inactive: 0,inactive: 0,inactive: 0,inactive: 0,inactive: 0,inactive: 0,inactive: 0,inactive: 0,inactive: 0,inactive: 0,inactive: 0,inactive: 0,inactive: 0,inactive: 0,inactive: 0,inactive: 0,inactive: 0
COc1ccc2c(C(=O)Nc3ccc(NC(=O)c4nn(C5CCN(C(=O)CC(C)(C)C#N)CC5)c5ccc(F)cc45)cc3Cl)cnn2c1 [Src Inhibitor 3] (2.5 µM),inactive: 0,inactive: 0,inactive: 0,inactive: 0,inactive: 0,inactive: 0,inactive: 0,inactive: 0,inactive: 0,inactive: 0,inactive: 0,inactive: 0,inactive: 0,inactive: 0,inactive: 0,inactive: 0,inactive: 0,inactive: 0,inactive: 0,inactive: 0
COc1cc(N2CCC(N)CC2)ccc1Nc1ncc(Cl)c(-c2c[nH]c3ccccc23)n1 (2.5 µM),inactive: 0,inactive: 0,inactive: 0,inactive: 0,inactive: 0,inactive: 0,inactive: 0,inactive: 0,inactive: 0,inactive: 0,inactive: 0,inactive: 0,inactive: 0,inactive: 0,inactive: 0,inactive: 0,inactive: 0,inactive: 0,inactive: 0,inactive: 0
Cc1ccc2c(Nc3cccc(OC(F)(F)F)c3)nccc2c1Nc1ncccc1-c1ncnc2[nH]cnc12 (10 µM),inactive: 0,inactive: 0,inactive: 0,inactive: 0,inactive: 0,inactive: 0,inactive: 0,inactive: 0,inactive: 0,inactive: 0,inactive: 0,inactive: 0,inactive: 0,inactive: 0,inactive: 0,inactive: 0,inactive: 0,inactive: 0,inactive: 0,inactive: 0

# Already shown: an excerpt of the list.
Structure (SMILES),kinase-Nluc reporter destabilization hit call [1],kinase-Nluc reporter destabilization hit call [2],kinase-Nluc reporter destabilization hit call [3],kinase-Nluc reporter destabilization hit call [4],kinase-Nluc reporter destabilization hit call [5],kinase-Nluc reporter destabilization hit call [6],kinase-Nluc reporter destabilization hit call [7],kinase-Nluc reporter destabilization hit call [8],kinase-Nluc reporter destabilization hit call [9],kinase-Nluc reporter destabilization hit call [10],kinase-Nluc reporter destabilization hit call [11],kinase-Nluc reporter destabilization hit call [12],kinase-Nluc reporter destabilization hit call [13],kinase-Nluc reporter destabilization hit call [14],kinase-Nluc reporter destabilization hit call [15],kinase-Nluc reporter destabilization hit call [16],kinase-Nluc reporter destabilization hit call [17],kinase-Nluc reporter destabilization hit call [18],kinase-Nluc reporter destabilization hit call [19],kinase-Nluc reporter destabilization hit call [20]
C[C@H](NC(=O)/C(C#N)=C/c1cccc(Br)n1)c1ccccc1 (2.5 µM),inactive: 0,inactive: 0,inactive: 0,inactive: 0,inactive: 0,inactive: 0,inactive: 0,inactive: 0,inactive: 0,inactive: 0,inactive: 0,inactive: 0,inactive: 0,inactive: 0,inactive: 0,inactive: 0,inactive: 0,inactive: 0,inactive: 0,inactive: 0
N#CC(=Cc1ccc(O)c(O)c1)C(=O)NCc1ccccc1 (mixture of isomers) (10 µM),inactive: 0,inactive: 0,inactive: 0,inactive: 0,inactive: 0,inactive: 0,inactive: 0,inactive: 0,inactive: 0,inactive: 0,inactive: 0,inactive: 0,inactive: 0,inactive: 0,inactive: 0,inactive: 0,inactive: 0,inactive: 0,inactive: 0,inactive: 0
